Among the data in paper PMC3706418 are binding values, retold here.

Chains of the proteins cited; added tags and fusions are not shown.
UniProt P10415: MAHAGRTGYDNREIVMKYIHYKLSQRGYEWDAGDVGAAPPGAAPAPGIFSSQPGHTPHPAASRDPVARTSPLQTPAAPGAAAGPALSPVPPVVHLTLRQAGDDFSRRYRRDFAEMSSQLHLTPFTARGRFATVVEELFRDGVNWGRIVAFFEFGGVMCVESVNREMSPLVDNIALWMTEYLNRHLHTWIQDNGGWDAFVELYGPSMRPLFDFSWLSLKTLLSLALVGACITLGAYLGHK

No constants are given. Whether binding was seen depends on the method and setting. In cells and extracts the contact can be indirect. Some results given as binding are weak or reduced against the parent protein; the word gives no strength. Where a sequence is shown, tags or fusion partners need not be part of it.

Assay [1] has as its target T1, GST-mSHP full length (mouse) (UniProt Q62227).
T1 sequence: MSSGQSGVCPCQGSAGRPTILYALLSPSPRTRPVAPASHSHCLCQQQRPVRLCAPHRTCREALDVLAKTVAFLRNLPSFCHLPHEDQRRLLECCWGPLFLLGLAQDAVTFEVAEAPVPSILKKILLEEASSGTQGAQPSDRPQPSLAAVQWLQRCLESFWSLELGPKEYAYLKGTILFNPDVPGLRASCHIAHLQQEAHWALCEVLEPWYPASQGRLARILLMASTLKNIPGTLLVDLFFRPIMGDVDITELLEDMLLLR
The assay can be described thus: pull-down; GST or GST-mSHP fusion proteins bound to glutathione MagneGST particles; in vitro translated Bcl2 proteins added, without or with AHPN (Fig. 4B); bound Bcl2 detected by Western blot (Bcl2 or Myc antibody); only the target purified.

In assay [2] the target is T2, HA-HNF4α (UniProt P41235).
T2 sequence: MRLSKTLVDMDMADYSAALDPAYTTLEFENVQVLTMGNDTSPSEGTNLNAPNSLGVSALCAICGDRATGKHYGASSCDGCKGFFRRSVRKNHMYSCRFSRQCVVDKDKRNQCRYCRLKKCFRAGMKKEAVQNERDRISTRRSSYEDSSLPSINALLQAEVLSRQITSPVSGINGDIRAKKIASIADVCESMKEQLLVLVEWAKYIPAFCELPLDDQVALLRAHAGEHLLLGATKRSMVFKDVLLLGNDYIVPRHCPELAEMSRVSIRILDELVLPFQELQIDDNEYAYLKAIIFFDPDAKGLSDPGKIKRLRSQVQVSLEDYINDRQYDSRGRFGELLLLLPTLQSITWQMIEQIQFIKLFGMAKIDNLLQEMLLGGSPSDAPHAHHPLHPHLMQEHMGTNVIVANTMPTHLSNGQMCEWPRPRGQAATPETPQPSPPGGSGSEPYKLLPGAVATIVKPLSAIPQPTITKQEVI
The assay can be described thus: co-IP; HEK293T cells co-transfected with GFP-mSHP constructs and HA-HNF4α; lysate precipitated with anti-HA agarose overnight at 4°C; Western blot with anti-GFP and anti-HA.

In the case of “Bcl2 wild-type (from UniProt P10415 1-239)”, the binding entry in assay [1] was “binds”.

B1: GFP-mSHP(FL) (protein, UniProt Q62227 1-260)
chain: MSSGQSGVCPCQGSAGRPTILYALLSPSPRTRPVAPASHSHCLCQQQRPVRLCAPHRTCREALDVLAKTVAFLRNLPSFCHLPHEDQRRLLECCWGPLFLLGLAQDAVTFEVAEAPVPSILKKILLEEASSGTQGAQPSDRPQPSLAAVQWLQRCLESFWSLELGPKEYAYLKGTILFNPDVPGLRASCHIAHLQQEAHWALCEVLEPWYPASQGRLARILLMASTLKNIPGTLLVDLFFRPIMGDVDITELLEDMLLLR
Consider B1, for which the binding result in assay [2] was “binds”.
